# Reference: PubChem BioAssay (EPA / NIEHS)
# Protein sequences, listed by entry. Tags and fused reporters are not part of them. Lines headed by an entry give the natural chain unless they say otherwise; changes in a name come on top.
# UniProt Q8IXJ6: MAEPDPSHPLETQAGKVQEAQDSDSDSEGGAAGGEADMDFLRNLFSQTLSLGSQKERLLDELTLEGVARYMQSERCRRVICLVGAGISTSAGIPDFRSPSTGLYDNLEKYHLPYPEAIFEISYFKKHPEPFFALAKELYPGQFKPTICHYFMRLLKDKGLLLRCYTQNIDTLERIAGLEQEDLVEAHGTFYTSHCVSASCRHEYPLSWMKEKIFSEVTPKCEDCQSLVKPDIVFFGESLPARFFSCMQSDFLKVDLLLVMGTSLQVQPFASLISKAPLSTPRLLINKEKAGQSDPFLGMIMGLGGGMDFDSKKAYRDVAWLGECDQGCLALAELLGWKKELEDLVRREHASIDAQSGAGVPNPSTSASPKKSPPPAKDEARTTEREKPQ
# UniProt P11509: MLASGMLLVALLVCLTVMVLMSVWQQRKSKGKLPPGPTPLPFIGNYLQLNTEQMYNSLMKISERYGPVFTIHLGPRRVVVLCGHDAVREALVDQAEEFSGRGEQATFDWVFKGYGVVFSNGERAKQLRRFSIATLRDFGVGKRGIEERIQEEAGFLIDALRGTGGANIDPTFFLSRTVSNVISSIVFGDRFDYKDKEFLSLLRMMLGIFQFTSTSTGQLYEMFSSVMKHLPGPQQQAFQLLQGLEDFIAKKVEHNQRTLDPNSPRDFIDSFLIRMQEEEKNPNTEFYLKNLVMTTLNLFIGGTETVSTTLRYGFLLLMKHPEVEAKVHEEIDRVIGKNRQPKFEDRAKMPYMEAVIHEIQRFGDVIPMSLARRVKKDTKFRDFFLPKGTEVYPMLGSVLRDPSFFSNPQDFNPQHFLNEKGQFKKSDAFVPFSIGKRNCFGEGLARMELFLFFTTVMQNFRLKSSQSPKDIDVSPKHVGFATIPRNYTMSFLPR
# UniProt P11511: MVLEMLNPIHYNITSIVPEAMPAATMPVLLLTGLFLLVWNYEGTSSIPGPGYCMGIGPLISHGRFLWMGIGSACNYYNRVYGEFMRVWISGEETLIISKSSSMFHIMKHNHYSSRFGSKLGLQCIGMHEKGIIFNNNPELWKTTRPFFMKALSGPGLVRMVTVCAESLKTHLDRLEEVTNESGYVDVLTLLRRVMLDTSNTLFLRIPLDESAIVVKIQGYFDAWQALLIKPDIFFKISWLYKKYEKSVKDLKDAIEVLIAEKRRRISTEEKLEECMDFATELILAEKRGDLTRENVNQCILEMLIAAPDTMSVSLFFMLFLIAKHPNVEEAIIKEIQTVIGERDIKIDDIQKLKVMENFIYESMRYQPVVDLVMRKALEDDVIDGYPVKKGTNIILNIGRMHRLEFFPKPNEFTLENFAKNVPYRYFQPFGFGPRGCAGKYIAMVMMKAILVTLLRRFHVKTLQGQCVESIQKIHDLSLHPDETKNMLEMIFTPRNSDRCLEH
# UniProt Q9HCS2: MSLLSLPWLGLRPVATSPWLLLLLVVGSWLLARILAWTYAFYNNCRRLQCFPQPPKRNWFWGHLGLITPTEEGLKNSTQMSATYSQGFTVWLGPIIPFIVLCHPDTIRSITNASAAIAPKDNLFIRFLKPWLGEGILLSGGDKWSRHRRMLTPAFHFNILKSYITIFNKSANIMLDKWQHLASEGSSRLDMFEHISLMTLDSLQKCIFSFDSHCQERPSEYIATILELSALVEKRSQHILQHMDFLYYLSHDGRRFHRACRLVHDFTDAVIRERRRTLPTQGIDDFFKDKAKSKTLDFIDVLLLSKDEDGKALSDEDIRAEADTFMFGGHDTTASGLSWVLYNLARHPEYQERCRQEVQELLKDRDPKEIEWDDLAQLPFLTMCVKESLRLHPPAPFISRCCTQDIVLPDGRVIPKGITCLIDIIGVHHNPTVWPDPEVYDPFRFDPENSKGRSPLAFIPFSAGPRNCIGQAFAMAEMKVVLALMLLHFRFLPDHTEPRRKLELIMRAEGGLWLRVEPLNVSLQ
# UniProt P31749: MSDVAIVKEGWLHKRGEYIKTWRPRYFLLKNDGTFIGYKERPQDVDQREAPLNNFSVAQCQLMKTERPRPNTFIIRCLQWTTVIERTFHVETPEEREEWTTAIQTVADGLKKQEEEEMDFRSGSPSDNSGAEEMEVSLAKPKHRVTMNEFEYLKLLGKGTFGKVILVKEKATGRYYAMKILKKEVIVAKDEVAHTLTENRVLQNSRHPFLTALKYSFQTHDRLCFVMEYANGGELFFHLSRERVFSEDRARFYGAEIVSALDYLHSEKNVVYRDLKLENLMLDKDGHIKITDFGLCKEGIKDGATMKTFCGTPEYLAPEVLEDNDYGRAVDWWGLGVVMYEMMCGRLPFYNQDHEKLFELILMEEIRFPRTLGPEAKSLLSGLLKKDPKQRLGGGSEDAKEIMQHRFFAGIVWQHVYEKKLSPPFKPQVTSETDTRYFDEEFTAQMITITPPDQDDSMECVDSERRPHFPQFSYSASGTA
# UniProt P62136, whole entry, looked up: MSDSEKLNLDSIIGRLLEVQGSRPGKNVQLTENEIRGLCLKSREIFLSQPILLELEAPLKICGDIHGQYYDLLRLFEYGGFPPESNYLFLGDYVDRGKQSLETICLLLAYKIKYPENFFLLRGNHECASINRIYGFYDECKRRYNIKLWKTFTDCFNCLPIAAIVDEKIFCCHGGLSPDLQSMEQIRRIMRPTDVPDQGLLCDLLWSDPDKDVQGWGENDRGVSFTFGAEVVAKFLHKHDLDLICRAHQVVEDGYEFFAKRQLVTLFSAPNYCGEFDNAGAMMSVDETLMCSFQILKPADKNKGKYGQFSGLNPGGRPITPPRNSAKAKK
# UniProt P29350: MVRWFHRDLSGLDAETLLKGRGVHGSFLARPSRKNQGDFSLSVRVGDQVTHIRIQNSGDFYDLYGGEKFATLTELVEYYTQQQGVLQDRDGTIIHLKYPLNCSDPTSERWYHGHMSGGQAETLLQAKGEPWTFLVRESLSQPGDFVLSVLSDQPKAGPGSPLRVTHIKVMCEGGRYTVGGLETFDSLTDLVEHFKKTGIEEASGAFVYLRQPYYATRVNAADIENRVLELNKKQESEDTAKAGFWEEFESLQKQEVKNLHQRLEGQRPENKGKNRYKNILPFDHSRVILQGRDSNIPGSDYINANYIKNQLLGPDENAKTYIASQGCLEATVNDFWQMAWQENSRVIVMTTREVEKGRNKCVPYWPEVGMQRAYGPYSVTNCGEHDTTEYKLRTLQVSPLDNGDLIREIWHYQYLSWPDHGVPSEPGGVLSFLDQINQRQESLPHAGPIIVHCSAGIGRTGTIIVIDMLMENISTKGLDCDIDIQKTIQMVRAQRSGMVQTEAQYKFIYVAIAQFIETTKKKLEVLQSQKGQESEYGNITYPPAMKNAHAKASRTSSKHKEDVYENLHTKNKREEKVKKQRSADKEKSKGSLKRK
# UniProt Q14994: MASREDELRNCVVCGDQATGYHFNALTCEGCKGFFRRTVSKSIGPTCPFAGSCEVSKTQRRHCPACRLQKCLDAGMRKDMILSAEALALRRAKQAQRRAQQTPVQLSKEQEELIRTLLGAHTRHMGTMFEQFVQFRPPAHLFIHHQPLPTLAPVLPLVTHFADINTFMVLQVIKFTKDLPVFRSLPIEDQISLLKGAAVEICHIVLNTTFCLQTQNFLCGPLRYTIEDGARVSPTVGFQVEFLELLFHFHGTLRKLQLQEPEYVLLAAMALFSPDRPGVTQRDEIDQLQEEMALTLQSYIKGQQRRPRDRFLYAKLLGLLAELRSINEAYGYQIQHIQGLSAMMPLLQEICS
# UniProt P10276, whole entry, looked up: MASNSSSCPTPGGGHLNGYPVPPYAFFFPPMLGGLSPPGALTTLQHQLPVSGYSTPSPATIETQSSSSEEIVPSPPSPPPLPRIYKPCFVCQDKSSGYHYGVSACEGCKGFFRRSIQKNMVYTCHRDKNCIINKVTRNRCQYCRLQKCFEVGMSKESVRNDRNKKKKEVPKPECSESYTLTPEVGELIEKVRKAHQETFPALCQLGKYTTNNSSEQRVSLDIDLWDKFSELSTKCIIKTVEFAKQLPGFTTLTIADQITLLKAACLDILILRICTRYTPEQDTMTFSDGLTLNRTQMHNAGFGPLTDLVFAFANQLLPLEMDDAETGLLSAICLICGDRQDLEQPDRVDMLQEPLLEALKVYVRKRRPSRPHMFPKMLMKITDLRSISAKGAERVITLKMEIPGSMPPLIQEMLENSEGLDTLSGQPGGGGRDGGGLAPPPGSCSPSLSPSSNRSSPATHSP
# UniProt P08684, whole entry, looked up: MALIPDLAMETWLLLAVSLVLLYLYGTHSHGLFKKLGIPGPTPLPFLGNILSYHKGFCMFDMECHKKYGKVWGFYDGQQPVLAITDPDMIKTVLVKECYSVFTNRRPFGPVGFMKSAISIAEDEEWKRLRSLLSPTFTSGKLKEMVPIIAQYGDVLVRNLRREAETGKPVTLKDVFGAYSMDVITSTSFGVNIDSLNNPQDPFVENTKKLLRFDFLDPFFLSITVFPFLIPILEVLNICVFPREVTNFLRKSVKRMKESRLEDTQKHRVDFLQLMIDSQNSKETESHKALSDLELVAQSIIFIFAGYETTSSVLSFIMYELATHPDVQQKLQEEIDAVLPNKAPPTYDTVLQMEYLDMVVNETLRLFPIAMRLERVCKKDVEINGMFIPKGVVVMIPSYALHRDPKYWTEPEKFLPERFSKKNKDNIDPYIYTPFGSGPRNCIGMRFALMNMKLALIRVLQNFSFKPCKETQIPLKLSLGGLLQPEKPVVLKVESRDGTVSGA
# UniProt P20813: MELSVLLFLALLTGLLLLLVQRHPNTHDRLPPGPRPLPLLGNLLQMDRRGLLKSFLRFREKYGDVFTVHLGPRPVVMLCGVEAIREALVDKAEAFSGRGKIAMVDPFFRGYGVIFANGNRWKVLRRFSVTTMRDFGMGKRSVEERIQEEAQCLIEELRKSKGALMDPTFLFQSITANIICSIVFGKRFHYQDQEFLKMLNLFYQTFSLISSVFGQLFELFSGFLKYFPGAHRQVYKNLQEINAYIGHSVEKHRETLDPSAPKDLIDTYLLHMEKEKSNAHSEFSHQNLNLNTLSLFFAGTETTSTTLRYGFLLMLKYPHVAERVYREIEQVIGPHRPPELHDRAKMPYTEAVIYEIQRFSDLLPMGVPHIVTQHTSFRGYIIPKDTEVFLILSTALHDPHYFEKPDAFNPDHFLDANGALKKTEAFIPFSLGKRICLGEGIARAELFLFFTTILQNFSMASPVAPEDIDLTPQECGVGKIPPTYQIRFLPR
# UniProt P10275: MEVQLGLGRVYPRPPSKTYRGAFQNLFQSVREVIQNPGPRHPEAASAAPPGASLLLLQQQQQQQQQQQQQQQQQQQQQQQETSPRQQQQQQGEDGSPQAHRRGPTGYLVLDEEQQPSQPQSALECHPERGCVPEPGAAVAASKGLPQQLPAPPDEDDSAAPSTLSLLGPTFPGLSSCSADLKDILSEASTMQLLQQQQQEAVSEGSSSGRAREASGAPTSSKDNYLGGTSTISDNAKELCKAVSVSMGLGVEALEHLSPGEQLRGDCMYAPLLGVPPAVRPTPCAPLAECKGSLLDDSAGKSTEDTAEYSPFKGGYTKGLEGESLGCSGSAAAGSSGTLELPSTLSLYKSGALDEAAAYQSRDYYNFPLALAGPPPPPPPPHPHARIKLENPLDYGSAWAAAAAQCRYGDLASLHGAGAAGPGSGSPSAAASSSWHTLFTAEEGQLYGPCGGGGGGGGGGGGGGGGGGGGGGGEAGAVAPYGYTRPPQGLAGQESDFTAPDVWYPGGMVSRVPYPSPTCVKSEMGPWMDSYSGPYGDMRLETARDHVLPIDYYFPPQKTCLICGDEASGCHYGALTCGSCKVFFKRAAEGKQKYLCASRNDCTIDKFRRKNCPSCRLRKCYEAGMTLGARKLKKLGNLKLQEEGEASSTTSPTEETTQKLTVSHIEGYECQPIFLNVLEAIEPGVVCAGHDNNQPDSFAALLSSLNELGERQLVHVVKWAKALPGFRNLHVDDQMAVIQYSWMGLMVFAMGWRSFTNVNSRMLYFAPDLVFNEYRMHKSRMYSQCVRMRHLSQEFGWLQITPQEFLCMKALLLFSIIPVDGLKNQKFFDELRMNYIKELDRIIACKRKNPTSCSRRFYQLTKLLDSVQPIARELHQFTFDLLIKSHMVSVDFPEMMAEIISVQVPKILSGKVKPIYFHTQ
# Several values for one entry are separate records, joined by “and”; a condition that tells them apart may be missing. Equal entries are not always repeated. The shares of active, inactive and inconclusive entries below differ from those in the screen. For some assays here: A potency beside an inconclusive call is a rough fit, not a confirmed value. Activity calls are given as the source filed them. Rule for the calls: active = hit-call score of the fitted dose curve at least 0.9, where 1 is the maximum; inconclusive = response in the unintended direction; inactive = score below 0.9.
# How the values were obtained:
# [1] = Tanguay_ZF_120hpf_AXIS_legacy: (Legacy) Oregon State University Tanguay Lab 120 Hour Post-fertilization zebrafish Assay for Body Axis Malformation (AID 2283635);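 note: potency for an increased fraction of larvae scored with body axis malformation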
# Method in brief: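 Tropical 5D wild-type zebrafish embryos, dechorionated with pronase at 4 hpf, were placed singly in wells at 6 hpf and exposed statically to test chemical (0.64% DMSO final) at 28C until 120 hpf, then scored by brightfield for body axis defects.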
# [2] = target: human Sirtuin 2 (SIRT2), SIRT2 (gene 22933) (UniProt Q8IXJ6); assay: NVS_ENZ_hSIRT2: NovaScreen (NVS) Enzymatic Assay for human Sirtuin 2 (SIRT2) (AID 2283217)
# Method in brief: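 Single-point duplicate screen at 25 uM, then concentration-response (max 50 uM) for chemicals passing threshold. Enzyme activity of recombinant human SIRT2 measured after 1 hr by fluorescence with mobility-shift separation of product; DMSO baseline.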
# [3] = target: human CYP2A6, CYP2A6 (gene 1548) (UniProt P11509); assay: NVS_ADME_hCYP2A6: NovaScreen (NVS) CYP450-related Enzyme Activity (ADME) Assay for human CYP2A6 (AID 2283099)
# Method in brief: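 Cell-free fluorescence readout of recombinant human CYP2A6 expressed in insect cells, read 0.5 h after dosing; loss of signal versus acetonitrile negative control. Primary screen in duplicate at 10 uM; actives re-run in concentration-response up to 20 uM.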
# [4] = target: human CYP19A1, CYP19A1 (gene 1588) (UniProt P11511); assay: NVS_ADME_hCYP19A1: NovaScreen (NVS) CYP450-related Enzyme Activity (ADME) Assay for human CYP19A1 (AID 2283098);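 for AC50: potency for inhibitors seen as loss of fluorescent enzyme signal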
# Method in brief: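 Primary testing was in duplicate at a single 10 uM concentration, with actives followed up in concentration-response series. Fluorescence read-out of recombinant enzyme activity at 0.5 h, cell-free. Acetonitrile was the negative-control baseline.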
# [5] = target: human CYP4F12, CYP4F12 (gene 66002) (UniProt Q9HCS2); assay: NVS_ADME_hCYP4F12: NovaScreen (NVS) CYP450-related Enzyme Activity (ADME) Assay for human CYP4F12 (AID 2283111)
# Method in brief: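 Recombinant enzyme with a fluorescent substrate, signal read at 0.5 h post-dose; activity loss analysed relative to acetonitrile. Compounds first run in duplicate at 10 uM, with follow-up concentration-response testing of actives.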
# NCBI gene 100848466 = assay: NVS_NR_bPR: NovaScreen (NVS) Nuclear Receptor Binding Assay for bovine Progextron Receptor (PR) (AID 2283343)
# Method in brief: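 Competitive radioligand binding with membranes from bovine uterus, scintillation read-out at 18 h post-dose. Compounds first tested in duplicate at 25 uM, then actives in concentration series; loss-of-signal relative to DMSO.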
# [6] = Tanguay_ZF_120hpf_PE_legacy: (Legacy) Oregon State University Tanguay Lab 120 Hour Post-fertilization zebrafish Assay for Pericardial Edema (AID 2283640);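 note: potency for increased incidence of pericardial edema versus DMSO baseline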
# Method in brief: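 Tropical 5D wild-type zebrafish embryos were exposed statically to 120 hpf at 28C, sealed and foil-covered, in 0.64% DMSO final. Pericardial edema was scored present/absent by brightfield microscopy; dead embryos were not scored.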
# [7] = target: human AKT serine/threonine Kinase 1 (AKT1), AKT1 (gene 207) (UniProt P31749); assay: NVS_ENZ_hAKT1: NovaScreen (NVS) Enzymatic Assay for human AKT serine/threonine Kinase 1 (AKT1) (AID 2283138)
# Method in brief: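 A biochemical assay with recombinant enzyme and specific substrate, read by fluorescence intensity with mobility-shift separation 1 hour after dosing. Actives from 25 uM duplicate screening were titrated up to 50 uM against DMSO baseline.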
# [8] = CCTE_Shafer_MEA_acute_LDH: CCTE's Lactate Dehydrogenase Assay for Cytotoxicity in the Neural Acute Assay, Shafer Lab (AID 2284086);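 note: active means LDH release rises above DMSO vehicle level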
# Method in brief: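 Cytotoxicity readout: spectrophotometric LDH activity in supernatant of rat primary cortical neurons, post-plating day 13 or 15, sampled after 40 min compound exposure; signal gain relative to DMSO baseline.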
# [9] = target: Serine/threonine-protein phosphatase PP1-alpha catalytic subunit (Homo sapiens) (UniProt P62136); assay: NVS_ENZ_hPPP1CA: NovaScreen (NVS) Enzymatic Assay for human Protein Phosphatase 1 Aatalytic subunit Alpha (PPP1CA) (AID 2283200)
# Method in brief: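 Chemicals were first screened in duplicate at 25 uM, and those passing threshold (e.g. 30% inhibition) were run as concentration series to 50 uM. Cell-free recombinant protein, 1.33 h read, fluorescent substrate/product mobility-shift detection, normalised to DMSO.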
# [10] = target: human Protein Tyrosine Phosphatase Non-receptor Type 6 (PTPN6), PTPN6 (gene 5777) (UniProt P29350); assay: NVS_ENZ_hPTPN6: NovaScreen (NVS) Enzymatic Assay for human Protein Tyrosine Phosphatase Non-receptor Type 6 (PTPN6) (AID 2283210)
# Method in brief: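 Recombinant human PTPN6 from SF9 cells, enzyme activity followed by fluorescence after mobility-shift separation of substrate and product at 1.33 h. Chemicals first tested at a single 25 uM in duplicate, then confirmed across concentration series; loss of signal relative to DMSO.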
# [11] = target: human Constitutive Androstane Receptor (CAR), NR1I3 (gene 9970) (UniProt Q14994); assay: NVS_NR_hCAR_Antagonist: NovaScreen (NVS) Nuclear Receptor Binding Assay for human Constitutive Androstane Receptor Antagonism (CAR) (AID 2283344)
# Method in brief: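 Single 25 uM duplicate primary screen, with concentration-series follow-up on actives. Cell-free binding format run in antagonist mode, TR-FRET signal taken 1 h post-dose; activity is signal loss relative to DMSO.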
# [12] = target: Retinoic acid receptor alpha (Homo sapiens) (UniProt P10276); assay: NVS_NR_hRAR_Antagonist: NovaScreen (NVS) Nuclear Receptor Binding Assay for human Retinoic Acid Alpha Receptor Antagonism (RAR) (AID 2283358)
# Method in brief: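 RARalpha antagonism was read by TR-FRET as loss of binding signal versus DMSO, 2 h after chemical addition, in a biochemical format. Single-concentration duplicates (25 uM) were run first, and actives were retested in concentration series.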
# [13] = read-out: alkyl and aryl transferase (GSTA2), GSTA2 (gene 2939); assay: CLD_GSTA2_48hr: CellzDirect (CLD) Gene Expression Assay for alkyl and aryl transferase (GSTA2) at 48 hours (AID 2283708);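 note: active means mRNA induction above DMSO vehicle baseline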
# Method in brief: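 GSTA2 mRNA quantified by qNPA chemiluminescence in human primary hepatocyte lysates after 48 h of daily fresh chemical dosing. Increases fitted against 0.2% DMSO vehicle baseline; cytotoxicity from morphology annotated yes/no.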
# [14] = STM_H9_OrnCyssISnorm_ratio: Stemina devTOX quickPredict H9 human embryonic stem cell (hESC)-based Assay for Ornithine (ORN):Cystine (CYSS) Ratio (AID 2283714)
# Method in brief: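 Ratio of internal-standard-normalized ornithine to cystine, measured by UPLC-HRMS in spent media from the last 24 h. H9 cells kept pluripotent, dosed 72 h with daily media and compound renewal; DMSO 0.1% serves as baseline.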
# [15] = read-out: ABC Transporter (ABCB1), ABCB1 (gene 5243); assay: CLD_ABCB1_6hr: CellzDirect (CLD) Gene Expression Assay for ABC Transporter (ABCB1) at 6 hours (AID 2283659);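 for outcome: hits raise ABCB1 transcript above the DMSO vehicle baseline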
# Method in brief: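 ABCB1 transcript measured by quantitative nuclease protection assay, chemiluminescent read-out, 6 h after dosing human hepatocyte cultures (0.2% DMSO vehicle, daily redosing). Activity fitted as increase over DMSO baseline; cytotoxicity flagged by phase-contrast morphology.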
# [16] = read-out: Cytochrome P450 3A4 (Homo sapiens) (UniProt P08684); assay: CLD_CYP3A4_24hr: CellzDirect (CLD) Gene Expression Assay for xenobiotic metabolism (CYP3A4) at 24 hours (AID 2283689)
# Method in brief: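 CYP3A4 mRNA induction read by quantitative nuclease protection (chemiluminescence) 24 hr after dosing. Cultured human hepatocytes (two donor preparations) treated daily, vehicle 0.2% DMSO; phase-contrast morphology annotates cytotoxicity.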
# [17] = read-out: Cytochrome P450 2B6 (Homo sapiens) (UniProt P20813); assay: CLD_CYP2B6_48hr: CellzDirect (CLD) Gene Expression Assay for xenobiotic metabolism (CYP2B6) at 48 hours (AID 2283699);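 note: actives raise transcript level above DMSO so potency reflects induction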
# Method in brief: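 CYP2B6 transcript induction, read by quantitative nuclease protection (S1 digestion, chemiluminescent detection) 48 h after dosing, is fitted upward against 0.2% DMSO. Cultured human liver primary cells, two donor preparations, received fresh chemical daily over multiple concentrations.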
# [18] = read-out: glucuronosyltransferase (UGT1A1), UGT1A1 (gene 54658); assay: CLD_UGT1A1_24hr: CellzDirect (CLD) Gene Expression Assay for glucuronosyltransferase (UGT1A1) at 24 hours (AID 2283696)
# Method in brief: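 UGT1A1 transcript induction was measured by quantitative nuclease protection assay (chemiluminescence) in human hepatocyte cultures 24 h after daily fresh dosing, with 0.2% DMSO as vehicle and baseline.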
# AR (gene 367) = AR (gene 367) (UniProt P10275); assay: ACEA_AR_agonist_80hr: ACEA Biosciences xCELLigence Real-Time Cell Analysis on Androgen Receptor Agonism for Proliferation (AID 2283783);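 note: hits increase impedance growth signal above DMSO baseline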
# Method in brief: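 Eight concentrations, 1:4 serial dilution from a 100 uM final top, in biological duplicate. Impedance-based real-time growth of 22Rv1 cells after overnight baseline, recorded hourly and read at 80 hours. Controls: testosterone, MG132, assay media.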
structure (smiles),measurement,setting,value
Nc1cc2c3c(c1)C(c1ccccc1)=N[C@@H](NC(=O)c1cccnc1)C(=O)N3CC2,AC50,[1],inconclusive: 41.4 µM
N#CC(Br)(Br)C(N)=O,AC50,[2],inconclusive: 12.3 µM
Cc1ccccc1O,AC50,[3],inconclusive: 2.78 µM
same,AC50,[1],inconclusive: 10.8 µM
CCCCC(C#N)(Cn1cncn1)c1ccc(Cl)cc1 (configuration not stated),AC50,[4],active: 789 nM
same,AC50,[5],inconclusive: 3.59 µM
same,outcome,NCBI gene 100848466,inactive
same,AC50,[6],active: 46.8 µM
ClCCOCCCl,AC50,[7],inconclusive: 3.39 µM
CCCCCCCCc1ccc(O)cc1,outcome,[3],inactive
same,AC50,[2],inconclusive: 0.172 µM
CN(C)C(=S)S,AC50,[8],inconclusive: 3.97 µM
COP(=S)(OC)SCN1C(=O)c2ccccc2C1=O,AC50,[3],inconclusive: 10 µM
COc1ccccc1N,AC50,[9],active: 14.8 µM
same,AC50,[10],active: 22.6 µM
same,AC50,[2],inconclusive: 0.278 µM
same,AC50,[6],inconclusive: 137 µM
CCCCCCCCCCCCc1cccc(S(=O)(=O)O)c1,AC50,[7],active: 35 µM
same,AC50,[9],active: 35.3 µM
same,AC50,[11],active: 17.9 µM
same,AC50,[12],active: 22.5 µM
CN(C)[C@@H]1C(=O)C(C(N)=O)=C(O)[C@@]2(O)C(=O)C3=C(O)c4c(O)cccc4[C@@](C)(O)[C@H]3[C@H](O)[C@@H]12,AC50,[10],active: 41.4 µM
same,outcome,[13],inactive
same,AC50,[14],inconclusive: 11.2 µM
same,outcome,[14],inactive
S=C1NCCN1,AC50,[3],active: 3.94 µM
same,outcome,[7],inactive
same,outcome,[15],inactive
same,AC50,[16],inconclusive: 20 µM
same,AC50,[17],inconclusive: 0.4 nM
same,AC50,[14],inconclusive: 14.5 µM
FC(F)C(F)(F)OCC(Cn1cncn1)c1ccc(Cl)cc1Cl (configuration not stated),AC50,[4],active: 2150 nM
same,AC50,[2],active: 14.6 µM
same,AC50,[15],inconclusive: 20 µM
same,outcome,[18],inactive
same,AC50,[14],inconclusive: 5 µM
same,AC50,[8],inconclusive: 19.9 µM
c1ccc(-c2ccccc2)cc1,AC50,AR (gene 367),inconclusive: 50 µM
Oc1cc(Cl)c(Cl)cc1Cl,outcome,[10],inactive
CCNC(=O)NC(=O)C(C#N)=NOC,outcome,[9],inactive
same,AC50,[11],inconclusive: 369 nM and inconclusive: 51.1 nM
same,AC50,[12],inconclusive: 25 µM
same,AC50,[15],inconclusive: 20 µM
same,AC50,[16],inconclusive: 20 µM
same,AC50,[18],inconclusive: 20 µM
CC(=NC#N)N(C)Cc1ccc(Cl)nc1,AC50,[4],inconclusive: 56.1 nM
same,AC50,[6],inconclusive: 0.00064 µM
same,AC50,[15],inconclusive: 20 µM
same,outcome,[17],inactive
same,AC50,[8],inconclusive: 20 µM
CNc1cnn(-c2cccc(C(F)(F)F)c2)c(=O)c1Cl,outcome,[4],inactive
same,outcome,[12],inactive
same,outcome,[18],inactive

# Rewritten with tabs: entries from further up.
structure (smiles)	measurement	setting	value
Nc1cc2c3c(c1)C(c1ccccc1)=N[C@@H](NC(=O)c1cccnc1)C(=O)N3CC2	AC50	[1]	inconclusive: 41.4 µM
N#CC(Br)(Br)C(N)=O	AC50	[2]	inconclusive: 12.3 µM
Cc1ccccc1O	AC50	[3]	inconclusive: 2.78 µM
same	AC50	[1]	inconclusive: 10.8 µM
CCCCC(C#N)(Cn1cncn1)c1ccc(Cl)cc1 (configuration not stated)	AC50	[4]	active: 789 nM
same	AC50	[5]	inconclusive: 3.59 µM
same	outcome	NCBI gene 100848466	inactive
same	AC50	[6]	active: 46.8 µM
ClCCOCCCl	AC50	[7]	inconclusive: 3.39 µM
CCCCCCCCc1ccc(O)cc1	outcome	[3]	inactive
same	AC50	[2]	inconclusive: 0.172 µM
CN(C)C(=S)S	AC50	[8]	inconclusive: 3.97 µM
